Earlier results in patent US20130243825A1, “COMPOSITIONS AND METHODS FOR THE TREATMENT OF SKIN DISEASES” (priority 2012, published 2013).
At least one structure is not confirmed: it was looked up by name or label, or the drawing left a doubt.

System: vasoconstriction
Settings: seven potency groups, I ultra high to VII least potent; Ference and Last 2009
In the case of `CC1(C)O[C@@H]2C[C@H]3[C@@H]4CCC5=CC(=O)C=C[C@]5(C)[C@@]4(F)[C@@H](O)C[C@]3(C)[C@]2(C(=O)CO)O1` [Triamcinolone acetonide 0.025%, Triamcinolone acetonide], the “potency group by strength in standard vasoconstriction assay” value (shortened to “potency group by strength”) is listed as “Medium (IV and V)”. For `CC1(C)O[C@@H]2C[C@H]3[C@@H]4C[C@H](F)C5=CC(=O)CC[C@]5(C)[C@H]4[C@@H](O)C[C@]3(C)[C@]2(C(=O)CO)O1` [Flurandrenolide 0.05%, Flurandrenolide], the “potency group by strength” value is given as “Ultra high (I)”. For `CC1(C)O[C@@H]2C[C@H]3[C@@H]4CCC5=CC(=O)C=C[C@]5(C)[C@@]4(F)[C@@H](O)C[C@]3(C)[C@]2(C(=O)CO)O1` [Triamcinolone acetonide 0.5%, Triamcinolone acetonide], the “potency group by strength” value is listed as “Medium to high (III)”. In the case of `CC1(C)O[C@@H]2C[C@H]3[C@@H]4CCC5=CC(=O)C=C[C@]5(C)[C@@]4(F)[C@@H](O)C[C@]3(C)[C@]2(C(=O)CO)O1` [Triamcinolone acetonide 0.1%, Triamcinolone acetonide], the “potency group by strength” value is given as “Medium (IV and V)”.
